Measurements reported in paper PMC11377701.
Results are given in words; binding and its absence hold for the method and conditions named. Binding seen in cells or lysates may run through a third protein. Some results given as binding are weak or reduced against the parent protein; the word gives no strength. Sequences can lack the tags named with a protein.

Chains of the proteins cited; added tags and fusions are not shown. Residues count along the entry.
UniProt Q32ZE1, residues 1-104: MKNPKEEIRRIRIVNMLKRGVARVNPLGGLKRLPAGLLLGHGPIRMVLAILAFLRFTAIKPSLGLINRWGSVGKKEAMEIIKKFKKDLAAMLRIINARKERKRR

Biological target: T1, FLAG-tagged murine DGAT1 (mouse) (UniProt Q9Z2A7)
T1 sequence: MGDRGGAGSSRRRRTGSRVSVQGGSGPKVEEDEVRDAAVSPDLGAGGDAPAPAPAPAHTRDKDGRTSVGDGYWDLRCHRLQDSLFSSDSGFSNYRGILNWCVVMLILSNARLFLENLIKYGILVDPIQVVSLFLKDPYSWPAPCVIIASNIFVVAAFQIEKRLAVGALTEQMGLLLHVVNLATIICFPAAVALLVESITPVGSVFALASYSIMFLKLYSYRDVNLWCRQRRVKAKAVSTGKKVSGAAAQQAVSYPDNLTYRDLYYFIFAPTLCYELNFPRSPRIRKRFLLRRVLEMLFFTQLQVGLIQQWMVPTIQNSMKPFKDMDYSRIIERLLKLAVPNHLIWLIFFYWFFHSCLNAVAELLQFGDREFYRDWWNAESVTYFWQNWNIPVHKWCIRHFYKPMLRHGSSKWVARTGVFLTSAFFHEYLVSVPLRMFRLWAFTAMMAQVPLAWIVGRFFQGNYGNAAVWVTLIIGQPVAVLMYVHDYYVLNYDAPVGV
Experiment: co-IP; HEK293T co-transfected with both plasmids, lysed 2 days after transfection in 1% NP-40 lysis buffer (50 mM Tris pH 7.4, 150 mM NaCl); pre-cleared with rProtein G agarose; FLAG-specific immunoprecipitation with anti-FLAG M2 affinity gel, 2.5 h at 4 °C; 4 washes; immunoblot

“ZIKV Uganda 1947 MR766 C (-anchor)-2x Strep II (from UniProt Q32ZE1 1-104)” was tested, and the binding was “binds”.
